Data on 6 molecules can be found in paper doi:10.1101/2021.09.14.460315.

The chains behind the UniProt entries cited, without tags or fusion partners. Where a name states a change or a piece, a line headed by the entry shows the natural chain unless it says otherwise.
UniProt Q9VAH9: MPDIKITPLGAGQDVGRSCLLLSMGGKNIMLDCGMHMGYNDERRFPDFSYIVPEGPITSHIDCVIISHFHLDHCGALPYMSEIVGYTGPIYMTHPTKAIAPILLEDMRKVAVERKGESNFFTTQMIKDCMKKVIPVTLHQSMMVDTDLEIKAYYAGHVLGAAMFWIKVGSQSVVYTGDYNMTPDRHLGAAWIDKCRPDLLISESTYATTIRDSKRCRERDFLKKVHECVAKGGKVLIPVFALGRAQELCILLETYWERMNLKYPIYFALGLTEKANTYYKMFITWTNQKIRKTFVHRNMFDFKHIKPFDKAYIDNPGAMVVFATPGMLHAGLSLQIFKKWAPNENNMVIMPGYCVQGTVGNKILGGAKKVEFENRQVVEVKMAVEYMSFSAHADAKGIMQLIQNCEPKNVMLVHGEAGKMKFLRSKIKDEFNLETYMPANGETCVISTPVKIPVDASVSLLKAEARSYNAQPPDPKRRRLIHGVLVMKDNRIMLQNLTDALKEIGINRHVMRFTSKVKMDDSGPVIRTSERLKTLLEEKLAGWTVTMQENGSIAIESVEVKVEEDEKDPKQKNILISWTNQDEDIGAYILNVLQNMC
UniProt Q9W1C5: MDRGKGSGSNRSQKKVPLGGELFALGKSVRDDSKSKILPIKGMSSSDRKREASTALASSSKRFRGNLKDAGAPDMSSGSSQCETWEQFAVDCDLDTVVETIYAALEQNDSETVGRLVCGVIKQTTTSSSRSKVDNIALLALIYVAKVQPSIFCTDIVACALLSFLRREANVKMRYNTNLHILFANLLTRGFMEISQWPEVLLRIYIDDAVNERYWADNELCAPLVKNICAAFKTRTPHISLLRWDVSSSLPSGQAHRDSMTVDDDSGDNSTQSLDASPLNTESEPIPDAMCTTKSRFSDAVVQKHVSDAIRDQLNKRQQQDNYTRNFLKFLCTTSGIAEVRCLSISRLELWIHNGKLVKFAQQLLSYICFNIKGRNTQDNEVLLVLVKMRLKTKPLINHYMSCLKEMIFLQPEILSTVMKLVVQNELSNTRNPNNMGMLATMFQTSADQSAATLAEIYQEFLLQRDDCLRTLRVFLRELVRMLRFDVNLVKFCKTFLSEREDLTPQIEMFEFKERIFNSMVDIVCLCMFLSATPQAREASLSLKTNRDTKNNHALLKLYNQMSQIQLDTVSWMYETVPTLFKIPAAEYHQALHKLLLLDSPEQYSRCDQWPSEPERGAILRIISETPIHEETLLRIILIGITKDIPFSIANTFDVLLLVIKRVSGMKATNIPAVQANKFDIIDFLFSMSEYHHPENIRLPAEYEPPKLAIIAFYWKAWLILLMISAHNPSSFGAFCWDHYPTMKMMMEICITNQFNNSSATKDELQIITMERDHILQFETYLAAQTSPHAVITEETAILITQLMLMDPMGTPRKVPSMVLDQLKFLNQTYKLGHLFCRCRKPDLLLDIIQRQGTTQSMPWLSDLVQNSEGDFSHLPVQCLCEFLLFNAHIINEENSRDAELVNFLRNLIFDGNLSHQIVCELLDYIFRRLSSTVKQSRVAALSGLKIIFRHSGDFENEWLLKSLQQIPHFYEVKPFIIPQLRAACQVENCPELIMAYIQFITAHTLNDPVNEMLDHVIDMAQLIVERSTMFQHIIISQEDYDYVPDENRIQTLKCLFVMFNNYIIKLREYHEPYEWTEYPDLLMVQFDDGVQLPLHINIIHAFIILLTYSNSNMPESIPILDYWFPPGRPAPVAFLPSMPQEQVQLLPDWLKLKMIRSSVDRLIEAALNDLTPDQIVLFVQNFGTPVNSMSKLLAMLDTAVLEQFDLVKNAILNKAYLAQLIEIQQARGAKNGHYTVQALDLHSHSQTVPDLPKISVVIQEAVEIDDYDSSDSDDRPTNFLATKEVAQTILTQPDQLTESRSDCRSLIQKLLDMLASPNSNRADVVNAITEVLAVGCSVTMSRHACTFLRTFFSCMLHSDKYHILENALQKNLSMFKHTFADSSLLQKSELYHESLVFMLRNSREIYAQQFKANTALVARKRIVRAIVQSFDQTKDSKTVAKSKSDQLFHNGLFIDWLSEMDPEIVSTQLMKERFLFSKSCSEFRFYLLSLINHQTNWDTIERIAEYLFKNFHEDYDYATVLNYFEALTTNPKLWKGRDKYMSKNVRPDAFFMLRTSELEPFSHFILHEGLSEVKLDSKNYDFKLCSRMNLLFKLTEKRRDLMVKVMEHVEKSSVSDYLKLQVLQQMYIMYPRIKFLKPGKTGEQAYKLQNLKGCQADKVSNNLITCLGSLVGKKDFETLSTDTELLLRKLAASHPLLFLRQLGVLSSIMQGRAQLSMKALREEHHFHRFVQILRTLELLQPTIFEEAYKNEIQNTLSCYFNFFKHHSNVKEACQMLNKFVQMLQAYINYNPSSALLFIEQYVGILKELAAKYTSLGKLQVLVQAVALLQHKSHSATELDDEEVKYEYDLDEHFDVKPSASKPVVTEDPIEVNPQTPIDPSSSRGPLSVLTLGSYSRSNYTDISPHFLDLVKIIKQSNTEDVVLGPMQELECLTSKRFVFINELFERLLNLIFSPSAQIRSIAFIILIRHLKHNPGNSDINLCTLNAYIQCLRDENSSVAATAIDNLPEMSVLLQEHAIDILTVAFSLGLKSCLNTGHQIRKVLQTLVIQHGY

In assay [1] the target is FLAG-IntS11-WT (Drosophila) (UniProt Q9VAH9). The assay is described as follows: co-IP.
Assay [2] concerns the target FLAG-IntS11-K462E (Drosophila) (UniProt Q9VAH9). Put plainly: co-IP.
Assay [3] has as its target Drosophila IntS11 (co-expressed in the IntS4-IntS9-IntS11 complex) (Drosophila) (UniProt Q9VAH9). The assay is described as follows: cryo-EM structure.
In assay [4] the target is T1, Drosophila IntS9 (co-expressed in the IntS4-IntS9-IntS11 complex) (Drosophila) (UniProt Q95TS5).
T1 sequence: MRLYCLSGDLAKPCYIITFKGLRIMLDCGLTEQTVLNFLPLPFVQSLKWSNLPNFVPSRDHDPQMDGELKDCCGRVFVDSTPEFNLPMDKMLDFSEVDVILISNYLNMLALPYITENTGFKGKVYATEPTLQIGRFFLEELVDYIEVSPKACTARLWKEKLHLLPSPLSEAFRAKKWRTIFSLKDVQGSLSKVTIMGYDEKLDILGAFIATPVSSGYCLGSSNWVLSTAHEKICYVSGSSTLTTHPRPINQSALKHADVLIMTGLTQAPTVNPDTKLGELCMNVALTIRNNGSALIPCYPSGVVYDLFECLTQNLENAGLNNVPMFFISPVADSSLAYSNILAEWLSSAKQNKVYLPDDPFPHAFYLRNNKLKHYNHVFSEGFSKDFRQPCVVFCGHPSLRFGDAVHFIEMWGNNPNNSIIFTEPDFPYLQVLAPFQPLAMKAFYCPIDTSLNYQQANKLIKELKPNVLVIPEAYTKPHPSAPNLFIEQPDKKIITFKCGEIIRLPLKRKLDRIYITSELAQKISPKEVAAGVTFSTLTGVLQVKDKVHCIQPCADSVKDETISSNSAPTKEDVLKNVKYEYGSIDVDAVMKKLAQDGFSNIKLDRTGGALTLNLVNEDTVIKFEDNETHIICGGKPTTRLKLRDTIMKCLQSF
The assay is described as follows: cryo-EM structure.

Results are given in words; binding and its absence hold for the method and conditions named. For some assays here: Binding seen in cells or lysates may run through a third protein. Some binding calls cover weakened binding; strength is not graded here. For some assays here: Tags and fused reporters may be left off the sequences shown.

Turning to “IntS1 (endogenous, DL1 nuclear extract) (from UniProt Q9W1C5 1-2053)”, the binding result in assay [1] is listed as “binds”.

B1: IntS9 (endogenous, DL1 nuclear extract) (protein, UniProt Q95TS5 1-654)
chain: T1 sequence
Take B1: the binding result in assay [1] and in assay [2] was “binds” throughout.

B2: Drosophila IntS9 (co-expressed in the IntS4-IntS9-IntS11 complex) (protein, UniProt Q95TS5 1-654)
chain: T1 sequence
As for B2, in assay [3], the binding result is on record as “binds”.

B3: Drosophila IntS4 (N-terminal 6xHis-tagged, co-expressed in the IntS4-IntS9-IntS11 complex) (protein, UniProt Q9W3E1 1-1022)
chain: MALAIKKRVGTYVETVDGSPPVKKLRLQTLAADAKGGKSGKVGNVERKLTALNQLDAYVGNLPAGALVLPTGTPVASTGAPSTGVIGNPPAAATGAPPMTAANSRELLELLVKITDEISYEDVEMGELKEVASKIFQLYQLQERDSDTSIRVKLLELLSGLGCECATEQALTMIIDYFIFLLRKEVSQKVLAQGMMCLFRIGERRKHMLPISYKTQVAHLAKEQLRSGSAHTQKNAMLVIGRFATKMEGERHYVWKLAFYIDSQDSSVRAQALHALLTLGERGSQLPAVLYKRAVEAMKDDYECVRKEALQLVFMLGNRHPDYILPSDRQQEELRMIDAAFSKVCEALCDLSLQIRVLAAELLGGMTAVSREFLHQTLDKKLMSNLRRKRTAHERGARLVASGEWSSGKRWADDAPQEHLDAQSISIIASGACGALIHGLEDEFLEVRTAAVASMCKLALSRPDFAVTSLDFLVDMFNDEIEDVRLKAIYSLTAIAKHIVLREDQLEIMLGSLEDYSVDVREGLHLMLGACRVSTQTCLLMVVQKLLDVLAKYPQDRNSTYACMRKIGQKHPHLVMAVAVHLLYVHPFFETPERDVEDPAYLCVLILVFNAAEHLVPIISLLPTATHRHYAYLRDSMPNLVPQLPIEGASSASATHRIDSAMHQAGSSAEYLQMILSHIEEIFTMTDERLELLQTAQSNLQRLGSIDAGMYGTSNFLETFLAAQIQIEQMQRCASTQRSRVPLKESLAALIRNCLKLQHTFSGLNYGDILQVKQLRLRACALHLVLVVRDRSQSALGPCQMLLQTAGDISEFIKANTKDEEEKPPVVETDMPMKESVSRDAQPDSFTRQLLIKLDGISDPKPGRVFREILPLVQQAPPLALPPANDKIRRCVANILEPCPLQSQDNVIKVTAGLIAAVPFVAEIDNLLESQKADMRIKIKYPDQHMHTVVPKQSDFKPIMTEQGEHKTNVRLRTTILLSHSVWTESSLVEIQLCLAVRPGSELELCKPAKVLFAPKPVRRGI
Regarding B3, the binding result in assay [4] and in assay [3] was “binds” throughout.

B4: IntS4 (endogenous, DL1 nuclear extract) (protein, UniProt Q9W3E1 1-1022)
chain: B3 chain
Regarding B4, the binding result in assay [1] was “binds”.

B5: IntS8 (endogenous, DL1 nuclear extract) (protein, UniProt A1ZAK1 1-1007)
chain: MDDPLKPKPVPLAAETVLWFEFLLDPHKITQHLQRPHPEPSAMELIVQFISMTPNTAQESVGTPGSDLQNLNQTPSNSGPIPGVVGGAPAPTTPTASGGVGMPHSPQRPAEKGLQLNRKQLALKILELKVATWLKWDLDALEKNLPVIMQLALLRDLCTISYGCSLSIPLPNDFDARISAAGNERAARFALTIYHRMLLRMQLIKEQALKAPRPQNTMYQTVDQLQQFLDTPTQPSIEYLQQLCASTKPFYIFHYDSFVPLRCDDIGNGQNYDVMHLITPQELRAQLHYELAQYYLYTKQYVLAREAAAACNTNLQAIPPQTTLYYCHIRPSELEGLLQACGISAEEQSLLEKFQQSLLNNYTDIVSILRMDNRRREIPFISRRQVELDIEGSISTGILKETVQLQLQVAALNVVRNIFEWGSIFGSVEYFEKYRELDCLPPLVEALQEMLPHCTFKEQAALKHFLIDCLLHQGGQSRQLLQTVRGFGLFSSDELQDIDEQMLQATPPVPTNSLASLSDWMCHSKMSRVDVGALERQLISCTNANTVRILLVKLCATAPGKPLWAINPSWDVPQPLKTLIMAMPVSFLQDFSYVLLGKARELATRGNYIDAVSMLSVLKSENQRQEMAANVQLMCKLITWEILHIQITQCLEEWHQKPLDLQSLGGRCKQCLGALQAGDSIVPRPDILESCAIMLLNLTEFPPLLYLDKRAGPLELPLAFAATFIEMEKMKGPKKVCRDAWELMLSMFLNVPKRGSSGVGGISSLQAFLQRIRHQSVFGLAISMIGKVHNILKDDPNHDLSCEYMQLWPTSINNPVSYSLRSVCETLQWLLSEALSYYPQTISWLKMKGDLDLAIGNNESAMRCYVNALVTGTDYCTMPLQRNVADDYVIRKMIRCAANLGCHMQATVLCQFLDEIDYGIVFKNLSEKSSNFTDAMDAYYSCIWDTTLLEFIVNLHAKRGEHSRKLEAISMMGTLELNANNNEEIKRESAMVRKSRFLRALAKQYLL
Regarding B5, the binding result in assay [1] is reported as “binds”.
